Changes are numbered by the printed parent chain. No constants are given. Whether binding was seen depends on the method and setting. Binding seen in cells or lysates may run through a third protein. Some results given as binding are weak or reduced against the parent protein; the word gives no strength. For part of these data: Sequences can lack the tags named with a protein.
Columns and labels:
[1] = target: T1, endogenous pY174 PBF (PBF phosphorylated at tyrosine 174) (human (endogenous in MCF-7, HeLa)) (UniProt P53801); assay: co-IP; endogenous CTTN and endogenous pY174 PBF in MCF-7 and HeLa cells
T1 sequence (chain, phosphotyrosine at 174): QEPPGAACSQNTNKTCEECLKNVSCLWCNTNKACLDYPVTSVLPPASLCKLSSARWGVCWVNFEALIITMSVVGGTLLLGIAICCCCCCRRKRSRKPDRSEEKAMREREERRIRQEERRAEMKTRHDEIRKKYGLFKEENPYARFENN

By UniProt entry, the sequences of proteins in these tests, tags left out.
UniProt Q14247: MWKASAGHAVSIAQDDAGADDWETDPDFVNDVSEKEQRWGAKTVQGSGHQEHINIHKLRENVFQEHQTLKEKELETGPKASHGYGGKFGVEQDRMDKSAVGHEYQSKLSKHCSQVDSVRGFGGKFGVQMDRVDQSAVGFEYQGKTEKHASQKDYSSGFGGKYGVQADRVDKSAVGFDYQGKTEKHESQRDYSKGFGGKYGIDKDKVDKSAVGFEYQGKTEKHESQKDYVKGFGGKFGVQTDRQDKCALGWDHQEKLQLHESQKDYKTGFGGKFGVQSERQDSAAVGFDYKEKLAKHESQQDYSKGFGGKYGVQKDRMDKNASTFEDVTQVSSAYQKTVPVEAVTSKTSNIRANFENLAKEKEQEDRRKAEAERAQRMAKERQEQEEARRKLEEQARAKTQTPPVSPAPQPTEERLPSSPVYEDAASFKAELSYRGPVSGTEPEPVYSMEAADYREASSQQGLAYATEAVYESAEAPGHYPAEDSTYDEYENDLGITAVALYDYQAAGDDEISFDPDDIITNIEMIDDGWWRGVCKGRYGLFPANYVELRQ

[2] = target: T1, endogenous pY174 PBF (PBF phosphorylated at tyrosine 174) (human (endogenous in MCF-7, HeLa)); assay: proximity ligation; Duolink in situ PLA of endogenous CTTN and endogenous pY174 PBF in HeLa cells
Y174A PBF-HA = target: T2, Y174A PBF-HA (UniProt P53801 33-180, Y174A); assay: proximity ligation; Duolink in situ PLA of PBF-HA (WT or Y174A) and myc-CTTN in transfected MCF-7, MDA-MB-231 and TPC-1 cells; also in cells halted during scratch wound assays
T2 construct: also called PBF mutant Y174A; phospho-null PBF mutant (Y174A)
T2 sequence (looked up): T1 sequence (chain, phosphotyrosine at 174) with Y142A

Substance | binding [1] | binding [2] | binding (Y174A PBF-HA)
endogenous cortactin (CTTN) (from UniProt Q14247 1-550) | binds | binds | –
human Myc-CTTN (cortactin) (from UniProt Q14247 1-550) | – | – | binds
